Assay results: paper PMC6321256
No constants are given. Whether binding was seen depends on the method and setting. For some assays here: Binding seen in cells or lysates may run through a third protein. Some results given as binding are weak or reduced against the parent protein; the word gives no strength. For some assays here: Where a sequence is shown, tags or fusion partners need not be part of it.

Amino acid sequences for entries named in this document (tags omitted). Residues count along the entry.
UniProt P32248, residues 25-378: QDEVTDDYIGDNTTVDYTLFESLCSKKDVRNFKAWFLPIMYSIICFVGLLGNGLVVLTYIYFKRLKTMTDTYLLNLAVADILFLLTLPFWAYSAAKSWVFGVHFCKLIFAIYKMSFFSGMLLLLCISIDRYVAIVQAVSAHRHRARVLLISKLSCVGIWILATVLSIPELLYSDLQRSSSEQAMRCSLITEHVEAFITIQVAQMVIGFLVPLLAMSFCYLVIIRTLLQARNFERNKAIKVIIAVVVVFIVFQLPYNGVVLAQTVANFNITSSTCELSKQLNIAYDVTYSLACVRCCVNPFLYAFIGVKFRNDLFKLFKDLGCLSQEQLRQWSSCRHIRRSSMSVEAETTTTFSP
UniProt O00585, residues 24-134: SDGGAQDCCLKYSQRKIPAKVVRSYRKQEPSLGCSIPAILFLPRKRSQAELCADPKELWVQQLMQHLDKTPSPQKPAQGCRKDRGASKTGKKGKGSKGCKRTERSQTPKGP
UniProt P32121: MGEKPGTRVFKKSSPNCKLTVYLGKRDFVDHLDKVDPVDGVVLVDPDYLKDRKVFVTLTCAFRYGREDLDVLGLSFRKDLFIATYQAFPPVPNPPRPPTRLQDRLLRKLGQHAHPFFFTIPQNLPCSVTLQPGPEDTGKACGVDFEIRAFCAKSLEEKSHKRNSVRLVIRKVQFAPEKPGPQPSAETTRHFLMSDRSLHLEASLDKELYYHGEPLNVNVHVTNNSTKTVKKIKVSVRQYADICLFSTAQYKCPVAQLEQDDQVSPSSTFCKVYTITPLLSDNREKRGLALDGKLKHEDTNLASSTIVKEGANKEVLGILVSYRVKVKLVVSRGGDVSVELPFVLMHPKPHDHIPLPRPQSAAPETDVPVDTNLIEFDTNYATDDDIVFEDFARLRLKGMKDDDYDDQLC

Tests used:
[1] = target: T1, ACKR4-eGFP (human) (UniProt Q9NPB9); assay: live-cell confocal time-lapse microscopy of fluorescent ligand on transfected cells; 100 nM chemokine-mRFP added to the medium of HEK293 cells transiently transfected with receptor-eGFP; medium with 20 mM HEPES pH 7.5, temperature-controlled chamber; untransfected cells in the same dish as control; only the binder purified
T1 sequence: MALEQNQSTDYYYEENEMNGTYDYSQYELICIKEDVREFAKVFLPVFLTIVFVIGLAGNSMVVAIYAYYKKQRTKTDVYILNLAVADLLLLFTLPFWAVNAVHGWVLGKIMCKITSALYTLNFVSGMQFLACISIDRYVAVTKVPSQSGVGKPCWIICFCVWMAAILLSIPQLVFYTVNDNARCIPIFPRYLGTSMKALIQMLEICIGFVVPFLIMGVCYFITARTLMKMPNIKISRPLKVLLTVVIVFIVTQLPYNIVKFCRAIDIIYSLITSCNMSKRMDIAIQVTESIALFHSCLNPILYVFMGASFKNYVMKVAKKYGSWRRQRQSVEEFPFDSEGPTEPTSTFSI

[2] = target: CCR7-EYFP (UniProt P32248); assay: FRET or BRET; BRET in HEK293 cells transiently transfected with CCR7-EYFP (or CCR7-HA as control) and β-arrestin2-hRLuc at 3:1; PBS with 5 mM glucose, 10 µM coelenterazine H, 37 °C; cells stimulated with 50 nM CCL19, CCL19-mRFP, CCL21 or CCL21-mRFP

binding [1]	binding [2]	Substance
binds		CCL21-mRFP (from UniProt O00585 24-134) (ligand)
	binds	β-arrestin2-hRLuc (from UniProt P32121 1-409)
